Test results reported in PMC12296705, “In Vivo and Bioinformatics Evaluation of Nine Traditional Chinese Medicine Compounds Targeting Acetylcholinesterase and Butyrylcholinesterase Enzymes in Alzheimer’s Disease” (Iranian Journal of Pharmaceutical Research : IJPR, 2025).

Experiments:
[1] = test system: lead acetate-induced AD (LA-AD) rats; assay: Lipid peroxidation (MDA) in brain tissue of LA-AD rats; format: in vivo, rat; conditions: 1 mg/kg IP for 15 days, compared to the LA-AD group
[2] = test system: lead acetate-induced AD (LA-AD) rats; assay: Glutathione (GSH) content in brain tissue of LA-AD rats; format: in vivo, rat; conditions: 1 mg/kg IP for 15 days, compared to the LA-AD group

SMILES: COc1cc2c(cc1OC)C(=O)C(CC1CCN(Cc3ccccc3)CC1)C2 (centres unmarked) [Donepezil, reference compound]
- Malondialdehyde (MDA) levels [1]: significantly reduced
- Glutathione (GSH) levels [2]: significantly increased
